This passage reports NP40-soluble protein abundance results from the supplement of paper PMC6411743.

By UniProt entry, the sequences of proteins in these tests, tags left out. Where a name states a change or a piece, a line headed by the entry shows the natural chain unless it says otherwise.
UniProt Q9NRW1: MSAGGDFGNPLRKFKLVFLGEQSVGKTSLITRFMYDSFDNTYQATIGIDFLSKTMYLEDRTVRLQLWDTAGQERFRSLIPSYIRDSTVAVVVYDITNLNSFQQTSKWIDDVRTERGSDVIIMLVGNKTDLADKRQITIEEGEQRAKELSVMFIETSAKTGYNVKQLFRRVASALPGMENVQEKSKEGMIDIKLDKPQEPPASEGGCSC
UniProt Q9NZC9: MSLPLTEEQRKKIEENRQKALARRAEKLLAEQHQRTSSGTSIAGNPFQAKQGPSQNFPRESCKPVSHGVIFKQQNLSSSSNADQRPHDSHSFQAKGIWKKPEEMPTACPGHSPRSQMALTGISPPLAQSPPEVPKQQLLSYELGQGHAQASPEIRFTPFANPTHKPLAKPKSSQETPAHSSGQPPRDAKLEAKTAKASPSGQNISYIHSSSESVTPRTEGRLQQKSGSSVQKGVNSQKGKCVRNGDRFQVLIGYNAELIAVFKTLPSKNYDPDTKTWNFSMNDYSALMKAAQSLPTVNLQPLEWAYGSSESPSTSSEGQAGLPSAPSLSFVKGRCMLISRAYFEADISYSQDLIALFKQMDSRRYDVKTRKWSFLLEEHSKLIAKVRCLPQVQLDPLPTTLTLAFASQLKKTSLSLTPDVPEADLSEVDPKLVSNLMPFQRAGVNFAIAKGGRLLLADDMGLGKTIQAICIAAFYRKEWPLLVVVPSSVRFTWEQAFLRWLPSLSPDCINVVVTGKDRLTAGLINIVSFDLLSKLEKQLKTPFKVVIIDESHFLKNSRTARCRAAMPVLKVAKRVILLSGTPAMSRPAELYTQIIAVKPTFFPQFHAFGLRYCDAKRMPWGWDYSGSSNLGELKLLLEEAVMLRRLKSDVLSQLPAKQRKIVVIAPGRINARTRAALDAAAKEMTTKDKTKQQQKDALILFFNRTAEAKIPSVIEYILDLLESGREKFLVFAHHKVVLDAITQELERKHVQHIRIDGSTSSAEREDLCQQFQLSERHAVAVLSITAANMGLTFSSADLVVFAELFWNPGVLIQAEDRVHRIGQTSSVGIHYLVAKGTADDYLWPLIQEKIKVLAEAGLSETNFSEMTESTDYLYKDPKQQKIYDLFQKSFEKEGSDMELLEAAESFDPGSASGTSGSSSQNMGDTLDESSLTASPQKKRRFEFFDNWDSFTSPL
UniProt Q9NRA2: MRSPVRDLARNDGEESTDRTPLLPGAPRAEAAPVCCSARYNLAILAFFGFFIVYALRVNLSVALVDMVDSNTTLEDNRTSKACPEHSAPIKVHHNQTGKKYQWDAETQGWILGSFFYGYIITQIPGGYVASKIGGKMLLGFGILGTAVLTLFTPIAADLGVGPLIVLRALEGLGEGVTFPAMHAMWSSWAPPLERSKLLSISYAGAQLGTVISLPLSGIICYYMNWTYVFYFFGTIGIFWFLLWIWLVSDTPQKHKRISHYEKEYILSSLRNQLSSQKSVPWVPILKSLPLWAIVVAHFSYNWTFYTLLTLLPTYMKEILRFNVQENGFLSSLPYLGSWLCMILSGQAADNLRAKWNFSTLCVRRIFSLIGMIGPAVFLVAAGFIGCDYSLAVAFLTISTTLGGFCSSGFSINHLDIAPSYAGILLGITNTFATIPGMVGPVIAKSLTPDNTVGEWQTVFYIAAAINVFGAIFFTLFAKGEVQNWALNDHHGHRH
UniProt Q9NSA3: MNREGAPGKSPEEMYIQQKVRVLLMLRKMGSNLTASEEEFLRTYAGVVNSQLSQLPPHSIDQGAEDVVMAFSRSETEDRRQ
UniProt Q9NYJ8: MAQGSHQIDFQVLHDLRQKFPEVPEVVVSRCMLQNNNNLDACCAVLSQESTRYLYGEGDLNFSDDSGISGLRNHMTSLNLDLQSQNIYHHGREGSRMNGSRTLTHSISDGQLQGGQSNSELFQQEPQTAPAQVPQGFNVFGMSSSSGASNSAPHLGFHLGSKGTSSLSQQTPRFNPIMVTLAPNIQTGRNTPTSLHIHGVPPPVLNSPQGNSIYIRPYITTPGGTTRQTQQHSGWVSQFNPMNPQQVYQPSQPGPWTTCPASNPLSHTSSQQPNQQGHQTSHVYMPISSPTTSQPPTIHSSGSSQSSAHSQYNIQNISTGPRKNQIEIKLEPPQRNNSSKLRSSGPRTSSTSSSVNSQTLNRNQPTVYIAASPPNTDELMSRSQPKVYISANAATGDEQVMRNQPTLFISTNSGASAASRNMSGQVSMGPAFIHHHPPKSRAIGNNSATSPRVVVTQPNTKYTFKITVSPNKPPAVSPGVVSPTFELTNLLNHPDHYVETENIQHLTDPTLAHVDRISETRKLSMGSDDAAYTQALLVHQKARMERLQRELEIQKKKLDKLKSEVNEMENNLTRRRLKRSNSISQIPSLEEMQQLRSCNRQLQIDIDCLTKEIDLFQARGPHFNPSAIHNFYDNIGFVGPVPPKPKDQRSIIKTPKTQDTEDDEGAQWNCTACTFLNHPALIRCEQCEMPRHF
UniProt Q9NR50: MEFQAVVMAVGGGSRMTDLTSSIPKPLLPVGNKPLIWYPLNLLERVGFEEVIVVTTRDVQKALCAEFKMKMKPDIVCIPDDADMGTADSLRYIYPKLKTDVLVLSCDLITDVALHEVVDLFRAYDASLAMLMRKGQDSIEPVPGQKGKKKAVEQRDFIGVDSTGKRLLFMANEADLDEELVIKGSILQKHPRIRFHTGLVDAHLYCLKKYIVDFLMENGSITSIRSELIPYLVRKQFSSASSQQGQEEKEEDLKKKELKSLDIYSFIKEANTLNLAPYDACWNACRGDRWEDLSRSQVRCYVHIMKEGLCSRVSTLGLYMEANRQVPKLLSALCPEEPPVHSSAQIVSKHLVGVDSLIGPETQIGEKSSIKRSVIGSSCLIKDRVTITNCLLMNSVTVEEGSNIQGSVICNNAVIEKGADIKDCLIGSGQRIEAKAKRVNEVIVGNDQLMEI
UniProt Q9P086: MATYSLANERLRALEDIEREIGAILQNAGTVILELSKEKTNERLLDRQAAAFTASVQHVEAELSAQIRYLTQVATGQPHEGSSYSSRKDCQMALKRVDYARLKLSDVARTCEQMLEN
UniProt Q9P0J0, whole entry: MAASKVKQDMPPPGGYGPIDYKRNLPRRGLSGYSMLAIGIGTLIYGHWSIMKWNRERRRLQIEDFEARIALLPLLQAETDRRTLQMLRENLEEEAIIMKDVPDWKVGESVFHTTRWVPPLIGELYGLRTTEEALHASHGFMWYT
UniProt Q9NRP2: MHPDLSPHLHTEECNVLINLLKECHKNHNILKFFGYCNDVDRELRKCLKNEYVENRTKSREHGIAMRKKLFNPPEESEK
UniProt Q9NX40: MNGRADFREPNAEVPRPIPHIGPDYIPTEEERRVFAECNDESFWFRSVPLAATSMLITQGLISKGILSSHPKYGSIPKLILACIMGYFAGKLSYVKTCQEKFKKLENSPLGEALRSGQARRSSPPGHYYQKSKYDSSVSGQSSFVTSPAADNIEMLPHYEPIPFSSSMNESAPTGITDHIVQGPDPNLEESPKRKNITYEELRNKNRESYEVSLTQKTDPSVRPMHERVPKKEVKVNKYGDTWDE
UniProt Q9NQT8: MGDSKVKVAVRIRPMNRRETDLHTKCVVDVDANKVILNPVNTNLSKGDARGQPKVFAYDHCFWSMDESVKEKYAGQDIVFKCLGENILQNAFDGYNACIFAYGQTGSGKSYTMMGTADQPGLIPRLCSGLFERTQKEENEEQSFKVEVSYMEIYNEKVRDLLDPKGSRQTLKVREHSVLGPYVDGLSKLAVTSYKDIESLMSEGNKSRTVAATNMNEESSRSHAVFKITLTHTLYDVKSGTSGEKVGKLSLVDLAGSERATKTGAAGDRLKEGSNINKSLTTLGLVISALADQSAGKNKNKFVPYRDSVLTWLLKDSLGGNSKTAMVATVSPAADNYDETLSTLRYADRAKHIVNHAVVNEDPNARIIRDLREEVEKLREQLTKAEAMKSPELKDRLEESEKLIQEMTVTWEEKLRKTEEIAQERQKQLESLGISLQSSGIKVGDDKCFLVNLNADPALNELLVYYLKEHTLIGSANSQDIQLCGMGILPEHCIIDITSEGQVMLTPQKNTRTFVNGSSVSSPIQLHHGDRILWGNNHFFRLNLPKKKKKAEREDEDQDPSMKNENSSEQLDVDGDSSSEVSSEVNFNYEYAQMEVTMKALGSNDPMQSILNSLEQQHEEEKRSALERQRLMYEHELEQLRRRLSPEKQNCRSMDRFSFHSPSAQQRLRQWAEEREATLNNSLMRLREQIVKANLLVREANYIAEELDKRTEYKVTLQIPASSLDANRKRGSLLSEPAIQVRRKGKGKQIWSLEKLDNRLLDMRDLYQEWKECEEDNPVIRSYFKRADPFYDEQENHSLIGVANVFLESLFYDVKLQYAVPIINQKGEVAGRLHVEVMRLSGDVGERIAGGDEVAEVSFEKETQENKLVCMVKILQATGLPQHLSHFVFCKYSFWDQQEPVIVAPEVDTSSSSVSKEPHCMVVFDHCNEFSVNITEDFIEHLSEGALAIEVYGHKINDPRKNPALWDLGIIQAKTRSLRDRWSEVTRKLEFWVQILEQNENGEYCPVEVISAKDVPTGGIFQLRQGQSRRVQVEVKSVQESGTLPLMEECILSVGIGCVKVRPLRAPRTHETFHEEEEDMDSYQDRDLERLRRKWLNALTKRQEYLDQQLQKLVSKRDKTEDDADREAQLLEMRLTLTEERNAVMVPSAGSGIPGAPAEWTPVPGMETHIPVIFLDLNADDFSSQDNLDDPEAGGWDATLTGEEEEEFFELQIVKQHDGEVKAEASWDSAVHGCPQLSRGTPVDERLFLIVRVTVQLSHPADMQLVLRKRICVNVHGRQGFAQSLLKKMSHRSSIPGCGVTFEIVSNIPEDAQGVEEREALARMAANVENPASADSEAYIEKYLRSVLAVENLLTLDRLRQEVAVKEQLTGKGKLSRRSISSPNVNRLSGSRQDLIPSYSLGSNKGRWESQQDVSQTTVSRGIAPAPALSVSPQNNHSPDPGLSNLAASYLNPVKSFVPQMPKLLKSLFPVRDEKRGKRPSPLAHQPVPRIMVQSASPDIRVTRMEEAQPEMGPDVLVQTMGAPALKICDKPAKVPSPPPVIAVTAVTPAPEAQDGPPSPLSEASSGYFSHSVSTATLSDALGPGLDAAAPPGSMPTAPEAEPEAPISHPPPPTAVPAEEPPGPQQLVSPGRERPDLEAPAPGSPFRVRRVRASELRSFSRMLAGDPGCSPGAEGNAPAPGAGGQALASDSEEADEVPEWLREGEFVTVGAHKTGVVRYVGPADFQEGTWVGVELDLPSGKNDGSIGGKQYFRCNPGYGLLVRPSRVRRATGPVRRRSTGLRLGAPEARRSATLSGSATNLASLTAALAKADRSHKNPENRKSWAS
UniProt Q9P0J7: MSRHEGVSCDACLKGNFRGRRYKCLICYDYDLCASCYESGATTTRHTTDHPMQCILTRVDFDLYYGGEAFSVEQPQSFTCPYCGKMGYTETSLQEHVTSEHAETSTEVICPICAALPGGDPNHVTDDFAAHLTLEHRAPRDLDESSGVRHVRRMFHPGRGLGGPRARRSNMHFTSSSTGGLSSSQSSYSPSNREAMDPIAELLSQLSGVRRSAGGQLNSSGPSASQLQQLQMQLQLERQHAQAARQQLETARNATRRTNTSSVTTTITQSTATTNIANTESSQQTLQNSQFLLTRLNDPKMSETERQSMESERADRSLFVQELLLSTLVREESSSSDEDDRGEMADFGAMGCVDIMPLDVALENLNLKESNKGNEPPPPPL
UniProt Q9NWS6: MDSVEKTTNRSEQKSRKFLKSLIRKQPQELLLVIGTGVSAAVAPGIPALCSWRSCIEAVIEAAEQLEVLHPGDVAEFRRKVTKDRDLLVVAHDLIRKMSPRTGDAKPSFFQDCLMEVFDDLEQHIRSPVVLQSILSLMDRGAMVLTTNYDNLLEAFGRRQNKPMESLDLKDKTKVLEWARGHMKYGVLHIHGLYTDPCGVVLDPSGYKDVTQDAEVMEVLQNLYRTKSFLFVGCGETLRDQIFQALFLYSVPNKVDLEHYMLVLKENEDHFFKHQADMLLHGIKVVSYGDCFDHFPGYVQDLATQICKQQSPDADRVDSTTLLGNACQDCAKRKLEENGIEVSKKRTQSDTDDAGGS
UniProt Q9NZZ3: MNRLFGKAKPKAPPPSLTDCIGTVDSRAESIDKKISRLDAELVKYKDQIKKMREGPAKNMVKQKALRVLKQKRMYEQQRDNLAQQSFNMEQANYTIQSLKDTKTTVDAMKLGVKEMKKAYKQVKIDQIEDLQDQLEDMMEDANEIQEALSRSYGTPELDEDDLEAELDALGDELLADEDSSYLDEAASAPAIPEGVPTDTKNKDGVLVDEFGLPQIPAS
UniProt Q9NXR1: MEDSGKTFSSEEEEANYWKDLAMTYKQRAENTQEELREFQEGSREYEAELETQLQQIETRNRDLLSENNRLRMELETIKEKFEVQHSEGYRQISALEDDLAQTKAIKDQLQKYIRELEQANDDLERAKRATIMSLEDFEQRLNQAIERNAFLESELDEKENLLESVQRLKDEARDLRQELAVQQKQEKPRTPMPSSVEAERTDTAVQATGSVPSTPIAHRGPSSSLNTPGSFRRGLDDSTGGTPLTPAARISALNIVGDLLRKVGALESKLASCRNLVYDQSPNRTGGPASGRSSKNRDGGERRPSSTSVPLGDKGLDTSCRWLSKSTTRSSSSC

± gives the standard deviation of the averaged measurements. Only a part is listed here, and it is no random draw.

Compound in one test: Nc1ncnc2c1ncn2[C@@H]1O[C@H](COP(=O)(O)OP(=O)(O)OP(=O)(O)O)[C@@H](O)[C@H]1O [adenosine triphosphate]
Put plainly: NP40-soluble protein abundance relative to vehicle (solubility fold change) (ratio); higher = more soluble protein in presence of ATP. As to conditions: concentration: 1mM. Put shortly:
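Each value is a fold change relative to the detergent-processed vehicle, calculated per replicate from vsn-normalised intensities. Jurkat crude lysate received eight concentrations (0.1 to 10 mM) for 10 min at room temperature and 3 min at 37 °C, then was solubilised in 0.8% NP40 with benzonase (60 min, 4 °C). The ultracentrifuged supernatant was TMT-labelled and run by LC-MS/MS in three independent experiments.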
As to KIF15 (UniProt Q9NS87), the NP40-soluble protein abundance worked out at 0.9859 ± 0.0037.

Take UniProt Q9NRW1: the NP40-soluble protein abundance was 1 ± 0.12.

With CDKN2AIP (UniProt Q9NXV6), the NP40-soluble protein abundance came out at 0.967 ± 0.032.

As to AGPAT5 (UniProt Q9NUQ2), the NP40-soluble protein abundance came out at 1.08 ± 0.083.

Regarding SERINC1 (UniProt Q9NRX5), the NP40-soluble protein abundance worked out at 1.02 ± 0.077.

For SMARCAL1 (UniProt Q9NZC9), the NP40-soluble protein abundance was determined as 1.02 ± 0.056.

Turning to UniProt Q9NVH2 and related entries, the NP40-soluble protein abundance was 1.03 ± 0.078.

UniProt Q9NXR7: the NP40-soluble protein abundance came to 0.991 ± 0.022.

For the target UniProt Q9NRR4 and related entries, the NP40-soluble protein abundance worked out at 1.29 ± 0.19.

As to SLC17A5 (UniProt Q9NRA2), the NP40-soluble protein abundance came to 0.844 ± 0.017.

Turning to HPS4 (UniProt Q9NQG7), the NP40-soluble protein abundance was determined as 0.951 ± 0.065.

On to UniProt Q9NPA0, for which the NP40-soluble protein abundance is 0.937 ± 0.033.

Take CTNNBIP1 (UniProt Q9NSA3): the NP40-soluble protein abundance came to 0.881 ± 0.093.

Consider UniProt Q9NV88 and related entries, for which the NP40-soluble protein abundance worked out at 1.05 ± 0.067.

In the case of UniProt Q9NYJ8, the NP40-soluble protein abundance was found to be 0.907 ± 0.015.

Regarding EIF2B3 (UniProt Q9NR50), the NP40-soluble protein abundance was found to be 0.996 ± 0.08.

In the case of MED11 (UniProt Q9P086), the NP40-soluble protein abundance amounted to 0.976 ± 0.25.

For UniProt Q9NVK5-2, the NP40-soluble protein abundance is 0.979 ± 0.088.

Turning to PLSCR3 (UniProt Q9NRY6), the NP40-soluble protein abundance came to 1.05 ± 0.011.

With UniProt Q9P0J0 and related entries, the NP40-soluble protein abundance stood at 1.04 ± 0.012.

As for UniProt Q9NRP2, the NP40-soluble protein abundance came out at 0.992 ± 0.26.

In the case of UniProt Q9NRG7-2|Q9NRG7, the NP40-soluble protein abundance is 1.09 ± 0.043.

Turning to OCIAD1 (UniProt Q9NX40), the NP40-soluble protein abundance was determined as 0.967 ± 0.013.

KIF13B (UniProt Q9NQT8): the NP40-soluble protein abundance was 1.03 ± 0.024.

UniProt Q9NSY1: the NP40-soluble protein abundance amounted to 1.18 ± 0.032.

UniProt Q9NQ88: the NP40-soluble protein abundance came to 0.978 ± 0.02.

Turning to KCMF1 (UniProt Q9P0J7), the NP40-soluble protein abundance was found to be 0.96 ± 0.046.

As for SNRK (UniProt Q9NRH2), the NP40-soluble protein abundance came to 1.08 ± 0.017.

For UniProt Q9NYV4 and related entries, the NP40-soluble protein abundance worked out at 1.28 ± 0.075.

As for FAM118A (UniProt Q9NWS6), the NP40-soluble protein abundance stood at 0.967 ± 0.045.

Turning to CHMP5 (UniProt Q9NZZ3), the NP40-soluble protein abundance turned out to be 0.945 ± 0.097.

Regarding “UniProt Q9NW15-5|C9J670 and related entries”, the NP40-soluble protein abundance worked out at 0.982 ± 0.11.

For UniProt Q9NVM4 and related entries, the NP40-soluble protein abundance came out at 1.02 ± 0.058.

Consider UniProt Q9NXR1 and related entries, for which the NP40-soluble protein abundance came out at 0.958 ± 0.11.

As for MIOS (UniProt Q9NXC5), the NP40-soluble protein abundance turned out to be 1.18 ± 0.065.

Take UniProt Q9NWV4: the NP40-soluble protein abundance was 0.955 ± 0.011.

Staying with this test, now noted: concentration: 2mM.
For the target KIF15 (UniProt Q9NS87), the NP40-soluble protein abundance was 0.989 ± 0.032.

In the case of UniProt Q9NRW1, the NP40-soluble protein abundance amounted to 1.01 ± 0.055.

On to CDKN2AIP (UniProt Q9NXV6), for which the NP40-soluble protein abundance was 0.968 ± 0.037.

For AGPAT5 (UniProt Q9NUQ2), the NP40-soluble protein abundance is 1.03 ± 0.051.

As for SERINC1 (UniProt Q9NRX5), the NP40-soluble protein abundance came to 1.07 ± 0.1.

Take SMARCAL1 (UniProt Q9NZC9): the NP40-soluble protein abundance turned out to be 1.06 ± 0.044.

For UniProt Q9NVH2 and related entries, the NP40-soluble protein abundance is 1.02 ± 0.037.

On to UniProt Q9NXR7, for which the NP40-soluble protein abundance worked out at 0.998 ± 0.029.

Turning to UniProt Q9NRR4 and related entries, the NP40-soluble protein abundance worked out at 1.41 ± 0.1.

Take SLC17A5 (UniProt Q9NRA2): the NP40-soluble protein abundance was determined as 1 ± 0.11.

For HPS4 (UniProt Q9NQG7), the NP40-soluble protein abundance was determined as 0.917 ± 0.06.

With UniProt Q9NPA0, the NP40-soluble protein abundance was 0.959 ± 0.024.

In the case of CTNNBIP1 (UniProt Q9NSA3), the NP40-soluble protein abundance amounted to 0.932 ± 0.018.

With UniProt Q9NV88 and related entries, the NP40-soluble protein abundance is 1.04 ± 0.046.

For the target UniProt Q9NYJ8, the NP40-soluble protein abundance was 0.878 ± 0.0098.

For the target EIF2B3 (UniProt Q9NR50), the NP40-soluble protein abundance stood at 0.97 ± 0.051.

As for MED11 (UniProt Q9P086), the NP40-soluble protein abundance was 1.02 ± 0.23.

As to UniProt Q9NVK5-2, the NP40-soluble protein abundance turned out to be 0.926 ± 0.062.

Take PLSCR3 (UniProt Q9NRY6): the NP40-soluble protein abundance was 1.02 ± 0.056.

As for UniProt Q9P0J0 and related entries, the NP40-soluble protein abundance worked out at 0.986 ± 0.027.

UniProt Q9NRP2: the NP40-soluble protein abundance amounted to 0.906 ± 0.16.

Turning to UniProt Q9NRG7-2|Q9NRG7, the NP40-soluble protein abundance is 1.081 ± 0.0052.

Turning to OCIAD1 (UniProt Q9NX40), the NP40-soluble protein abundance worked out at 0.977 ± 0.034.

With KIF13B (UniProt Q9NQT8), the NP40-soluble protein abundance turned out to be 1.032 ± 0.0084.

As to UniProt Q9NSY1, the NP40-soluble protein abundance came to 1.29 ± 0.032.

With UniProt Q9NQ88, the NP40-soluble protein abundance was found to be 0.992 ± 0.032.

Consider KCMF1 (UniProt Q9P0J7), for which the NP40-soluble protein abundance was determined as 0.931 ± 0.081.

For the target SNRK (UniProt Q9NRH2), the NP40-soluble protein abundance amounted to 1 ± 0.085.

Take UniProt Q9NYV4 and related entries: the NP40-soluble protein abundance is 1.35 ± 0.072.

Take FAM118A (UniProt Q9NWS6): the NP40-soluble protein abundance is 0.97 ± 0.03.

Consider CHMP5 (UniProt Q9NZZ3), for which the NP40-soluble protein abundance is 0.917 ± 0.057.

As for “UniProt Q9NW15-5|C9J670 and related entries”, the NP40-soluble protein abundance came out at 1.05 ± 0.14.

As to UniProt Q9NVM4 and related entries, the NP40-soluble protein abundance was 1.03 ± 0.037.

Turning to UniProt Q9NXR1 and related entries, the NP40-soluble protein abundance was determined as 0.973 ± 0.061.

Turning to MIOS (UniProt Q9NXC5), the NP40-soluble protein abundance stood at 1.2 ± 0.057.

UniProt Q9NWV4: the NP40-soluble protein abundance stood at 0.967 ± 0.025.

The test is the same for the next values; noted with them: concentration: 4mM.
Regarding KIF15 (UniProt Q9NS87), the NP40-soluble protein abundance was 0.975 ± 0.025.

Regarding UniProt Q9NRW1, the NP40-soluble protein abundance is 0.989 ± 0.053.

Take CDKN2AIP (UniProt Q9NXV6): the NP40-soluble protein abundance was determined as 0.981 ± 0.015.

As for AGPAT5 (UniProt Q9NUQ2), the NP40-soluble protein abundance is 1.06 ± 0.029.

Turning to SERINC1 (UniProt Q9NRX5), the NP40-soluble protein abundance turned out to be 1.03 ± 0.05.

As for SMARCAL1 (UniProt Q9NZC9), the NP40-soluble protein abundance was found to be 1.1 ± 0.077.

For UniProt Q9NVH2 and related entries, the NP40-soluble protein abundance came to 1.032 ± 0.0079.

Consider UniProt Q9NXR7, for which the NP40-soluble protein abundance stood at 0.979 ± 0.036.

On to UniProt Q9NRR4 and related entries, for which the NP40-soluble protein abundance worked out at 1.39 ± 0.28.

Consider SLC17A5 (UniProt Q9NRA2), for which the NP40-soluble protein abundance is 0.823 ± 0.012.

Turning to HPS4 (UniProt Q9NQG7), the NP40-soluble protein abundance was 1.04 ± 0.048.

For the target UniProt Q9NPA0, the NP40-soluble protein abundance is 0.914 ± 0.022.

For the target CTNNBIP1 (UniProt Q9NSA3), the NP40-soluble protein abundance was 0.846 ± 0.089.

Regarding UniProt Q9NV88 and related entries, the NP40-soluble protein abundance amounted to 1.03 ± 0.052.

With UniProt Q9NYJ8, the NP40-soluble protein abundance was 0.979 ± 0.11.

Regarding EIF2B3 (UniProt Q9NR50), the NP40-soluble protein abundance came to 0.977 ± 0.046.

For MED11 (UniProt Q9P086), the NP40-soluble protein abundance was found to be 1.14 ± 0.21.

Turning to UniProt Q9NVK5-2, the NP40-soluble protein abundance stood at 0.944 ± 0.069.

Turning to PLSCR3 (UniProt Q9NRY6), the NP40-soluble protein abundance amounted to 1.02 ± 0.032.

Regarding UniProt Q9P0J0 and related entries, the NP40-soluble protein abundance is 0.938 ± 0.023.

Regarding UniProt Q9NRP2, the NP40-soluble protein abundance was 0.933 ± 0.15.

Turning to UniProt Q9NRG7-2|Q9NRG7, the NP40-soluble protein abundance stood at 1.04 ± 0.022.

As to OCIAD1 (UniProt Q9NX40), the NP40-soluble protein abundance turned out to be 0.963 ± 0.03.

Turning to KIF13B (UniProt Q9NQT8), the NP40-soluble protein abundance worked out at 1.02 ± 0.024.

As for UniProt Q9NSY1, the NP40-soluble protein abundance worked out at 1.35 ± 0.082.

With UniProt Q9NQ88, the NP40-soluble protein abundance came out at 0.96 ± 0.018.

In the case of KCMF1 (UniProt Q9P0J7), the NP40-soluble protein abundance was 0.898 ± 0.054.

On to SNRK (UniProt Q9NRH2), for which the NP40-soluble protein abundance came out at 1.01 ± 0.09.

As for UniProt Q9NYV4 and related entries, the NP40-soluble protein abundance is 1.44 ± 0.085.

Take FAM118A (UniProt Q9NWS6): the NP40-soluble protein abundance worked out at 1 ± 0.023.

For CHMP5 (UniProt Q9NZZ3), the NP40-soluble protein abundance was determined as 0.912 ± 0.1.

Consider “UniProt Q9NW15-5|C9J670 and related entries”, for which the NP40-soluble protein abundance amounted to 0.911 ± 0.07.

Take UniProt Q9NVM4 and related entries: the NP40-soluble protein abundance was determined as 1.05 ± 0.043.

UniProt Q9NXR1 and related entries: the NP40-soluble protein abundance was found to be 0.997 ± 0.034.

As for MIOS (UniProt Q9NXC5), the NP40-soluble protein abundance came out at 1.27 ± 0.028.

As to UniProt Q9NWV4, the NP40-soluble protein abundance was 0.929 ± 0.02.
